Data reported in article PMC3623790.
Results are given in words; binding and its absence hold for the method and conditions named. Binding seen in cells or lysates may run through a third protein. Some entries that bind do so weakly or less than the wild type.

By UniProt entry, the sequences of proteins in these tests, tags left out.
UniProt P48754: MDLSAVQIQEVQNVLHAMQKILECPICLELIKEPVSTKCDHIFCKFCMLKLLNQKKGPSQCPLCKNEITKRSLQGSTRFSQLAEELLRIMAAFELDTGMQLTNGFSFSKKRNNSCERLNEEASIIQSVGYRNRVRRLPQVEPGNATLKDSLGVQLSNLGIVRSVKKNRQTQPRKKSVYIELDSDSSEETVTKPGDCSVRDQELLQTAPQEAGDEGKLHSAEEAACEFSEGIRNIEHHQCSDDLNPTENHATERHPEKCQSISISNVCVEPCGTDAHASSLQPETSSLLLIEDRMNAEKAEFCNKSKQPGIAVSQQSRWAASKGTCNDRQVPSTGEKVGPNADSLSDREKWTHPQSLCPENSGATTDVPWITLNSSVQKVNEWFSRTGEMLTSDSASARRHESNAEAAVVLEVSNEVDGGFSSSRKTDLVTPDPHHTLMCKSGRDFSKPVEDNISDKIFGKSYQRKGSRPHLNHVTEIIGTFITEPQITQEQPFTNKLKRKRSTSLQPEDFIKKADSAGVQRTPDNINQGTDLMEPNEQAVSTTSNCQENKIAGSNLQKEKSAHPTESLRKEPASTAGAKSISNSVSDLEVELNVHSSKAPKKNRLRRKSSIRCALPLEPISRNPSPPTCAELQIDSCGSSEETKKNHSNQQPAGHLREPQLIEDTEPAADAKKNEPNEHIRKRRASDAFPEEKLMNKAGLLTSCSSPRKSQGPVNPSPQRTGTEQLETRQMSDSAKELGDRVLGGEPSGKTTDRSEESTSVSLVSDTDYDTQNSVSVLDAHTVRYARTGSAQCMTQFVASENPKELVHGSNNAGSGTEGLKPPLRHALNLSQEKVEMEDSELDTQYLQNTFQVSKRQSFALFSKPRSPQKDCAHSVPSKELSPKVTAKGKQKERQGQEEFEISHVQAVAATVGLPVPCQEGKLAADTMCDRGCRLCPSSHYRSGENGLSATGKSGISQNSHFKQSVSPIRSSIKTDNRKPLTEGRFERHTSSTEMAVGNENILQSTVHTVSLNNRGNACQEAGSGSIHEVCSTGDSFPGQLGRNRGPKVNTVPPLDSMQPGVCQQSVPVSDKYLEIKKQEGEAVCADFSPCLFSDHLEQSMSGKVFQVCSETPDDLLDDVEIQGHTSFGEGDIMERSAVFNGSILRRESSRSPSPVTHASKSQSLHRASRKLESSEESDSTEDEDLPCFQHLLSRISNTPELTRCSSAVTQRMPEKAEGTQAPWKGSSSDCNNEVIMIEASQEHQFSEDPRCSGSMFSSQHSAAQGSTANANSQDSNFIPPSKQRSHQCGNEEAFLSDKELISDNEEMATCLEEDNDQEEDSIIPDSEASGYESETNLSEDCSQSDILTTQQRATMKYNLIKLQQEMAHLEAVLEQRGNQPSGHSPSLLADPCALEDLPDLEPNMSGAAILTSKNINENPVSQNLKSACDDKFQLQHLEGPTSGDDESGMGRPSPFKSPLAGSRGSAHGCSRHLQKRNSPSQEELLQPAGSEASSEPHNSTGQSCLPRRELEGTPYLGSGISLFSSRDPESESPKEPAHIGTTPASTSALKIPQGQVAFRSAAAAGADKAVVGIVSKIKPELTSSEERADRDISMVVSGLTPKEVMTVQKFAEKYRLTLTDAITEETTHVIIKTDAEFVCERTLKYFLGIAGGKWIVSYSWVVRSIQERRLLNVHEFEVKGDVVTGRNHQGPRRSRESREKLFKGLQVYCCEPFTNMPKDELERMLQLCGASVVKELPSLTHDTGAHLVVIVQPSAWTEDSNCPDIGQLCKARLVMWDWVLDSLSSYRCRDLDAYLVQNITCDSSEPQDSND
UniProt Q9JKK8: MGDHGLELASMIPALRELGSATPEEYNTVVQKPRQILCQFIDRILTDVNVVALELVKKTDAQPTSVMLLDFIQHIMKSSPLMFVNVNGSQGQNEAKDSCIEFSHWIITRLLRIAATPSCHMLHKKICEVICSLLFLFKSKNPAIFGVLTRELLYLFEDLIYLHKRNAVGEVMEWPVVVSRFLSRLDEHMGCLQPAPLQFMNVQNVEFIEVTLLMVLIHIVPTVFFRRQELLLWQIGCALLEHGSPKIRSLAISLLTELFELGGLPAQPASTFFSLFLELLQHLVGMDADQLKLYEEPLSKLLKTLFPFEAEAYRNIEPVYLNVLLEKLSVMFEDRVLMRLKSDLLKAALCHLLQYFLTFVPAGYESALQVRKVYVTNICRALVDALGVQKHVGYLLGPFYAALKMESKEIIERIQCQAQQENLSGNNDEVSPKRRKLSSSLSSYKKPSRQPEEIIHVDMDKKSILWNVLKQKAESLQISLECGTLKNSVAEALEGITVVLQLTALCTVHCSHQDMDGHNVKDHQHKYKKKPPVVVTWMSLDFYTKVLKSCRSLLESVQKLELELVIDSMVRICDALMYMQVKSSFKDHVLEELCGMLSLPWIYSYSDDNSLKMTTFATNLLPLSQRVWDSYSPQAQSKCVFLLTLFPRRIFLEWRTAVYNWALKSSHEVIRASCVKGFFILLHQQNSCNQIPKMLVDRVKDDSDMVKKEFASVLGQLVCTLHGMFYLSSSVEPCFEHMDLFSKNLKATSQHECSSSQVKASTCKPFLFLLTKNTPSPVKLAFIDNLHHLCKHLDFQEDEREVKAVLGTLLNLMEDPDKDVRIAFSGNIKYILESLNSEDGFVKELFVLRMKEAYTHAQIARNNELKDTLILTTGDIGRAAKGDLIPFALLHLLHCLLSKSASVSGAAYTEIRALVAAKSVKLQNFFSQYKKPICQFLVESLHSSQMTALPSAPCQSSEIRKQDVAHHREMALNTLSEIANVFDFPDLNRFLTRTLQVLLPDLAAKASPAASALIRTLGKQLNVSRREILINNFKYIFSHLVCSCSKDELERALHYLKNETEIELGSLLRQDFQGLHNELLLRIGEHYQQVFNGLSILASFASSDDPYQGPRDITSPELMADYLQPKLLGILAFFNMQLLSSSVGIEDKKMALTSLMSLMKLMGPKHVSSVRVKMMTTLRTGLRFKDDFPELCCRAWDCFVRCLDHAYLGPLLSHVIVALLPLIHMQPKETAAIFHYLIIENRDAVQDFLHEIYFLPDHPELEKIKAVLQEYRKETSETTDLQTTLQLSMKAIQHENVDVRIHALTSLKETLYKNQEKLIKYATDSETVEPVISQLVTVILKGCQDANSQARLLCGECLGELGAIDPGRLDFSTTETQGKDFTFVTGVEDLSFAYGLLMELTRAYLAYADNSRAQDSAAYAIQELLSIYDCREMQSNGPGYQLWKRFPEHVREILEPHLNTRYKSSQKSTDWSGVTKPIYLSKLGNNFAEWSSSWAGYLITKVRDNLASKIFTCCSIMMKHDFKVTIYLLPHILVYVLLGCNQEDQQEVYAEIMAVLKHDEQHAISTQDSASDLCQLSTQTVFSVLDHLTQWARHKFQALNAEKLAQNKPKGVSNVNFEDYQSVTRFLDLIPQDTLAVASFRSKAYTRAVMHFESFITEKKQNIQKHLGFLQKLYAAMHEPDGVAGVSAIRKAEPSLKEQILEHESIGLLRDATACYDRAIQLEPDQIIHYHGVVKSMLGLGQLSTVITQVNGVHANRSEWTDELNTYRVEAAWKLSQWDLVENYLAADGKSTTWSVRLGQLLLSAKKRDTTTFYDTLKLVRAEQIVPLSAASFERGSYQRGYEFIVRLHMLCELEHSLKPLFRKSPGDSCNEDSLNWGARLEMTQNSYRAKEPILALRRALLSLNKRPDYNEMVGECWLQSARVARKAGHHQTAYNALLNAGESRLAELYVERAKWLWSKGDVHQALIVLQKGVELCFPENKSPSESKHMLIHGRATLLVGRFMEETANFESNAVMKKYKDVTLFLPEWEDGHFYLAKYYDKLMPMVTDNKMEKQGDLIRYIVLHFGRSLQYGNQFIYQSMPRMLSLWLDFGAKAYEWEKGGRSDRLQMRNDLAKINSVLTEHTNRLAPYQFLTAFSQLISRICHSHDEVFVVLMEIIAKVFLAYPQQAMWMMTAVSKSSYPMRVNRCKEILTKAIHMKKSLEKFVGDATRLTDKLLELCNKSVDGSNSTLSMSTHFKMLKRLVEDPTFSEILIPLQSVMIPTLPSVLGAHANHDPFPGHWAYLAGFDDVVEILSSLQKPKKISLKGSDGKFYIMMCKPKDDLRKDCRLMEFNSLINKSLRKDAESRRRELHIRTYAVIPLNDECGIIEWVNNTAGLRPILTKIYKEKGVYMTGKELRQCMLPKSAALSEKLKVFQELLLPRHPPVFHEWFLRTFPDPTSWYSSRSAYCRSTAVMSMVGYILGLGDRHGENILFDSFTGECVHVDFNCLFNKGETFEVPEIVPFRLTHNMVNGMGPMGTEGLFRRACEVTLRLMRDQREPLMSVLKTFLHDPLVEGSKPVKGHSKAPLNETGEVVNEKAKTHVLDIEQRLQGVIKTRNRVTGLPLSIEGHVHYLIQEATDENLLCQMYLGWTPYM

Target: Brca1 (mouse (endogenous in testes)) (UniProt P48754)
Test: proximity ligation; in situ PLA (Duolink) on Setx+/+ pachytene spermatocyte spreads, endogenous proteins; rabbit anti-mouse Brca1, sheep anti-senataxin (Ab-1), goat anti-ATR; SCP3 counterstain

## ataxia-telangiectasia and Rad3 related (ATR) (from UniProt Q9JKK8 1-2635)
  binding: binds
